Laboratory results taken from the supplement of paper PMC6078165.

Tested on: MDAMB436
Test: relative JC-1 red fluorescence (viability) vs pre-drug, coculture with fibroblast (fraction); higher = more viable cancer cells
Experimental: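 JC-1 labelled TNBC cells cocultured 1:1 (1,500 cells each) with CellTrace Violet stained primary or stromal fibroblasts in 384-well plates in FluoroBrite medium, treated with one of 42 anticancer drugs at 0.1, 1, 10 or 100 uM. JC-1 red fluorescence (mitochondrial integrity in cancer cells only) was read by plate reader every 8 h for 72 h. Values are normalised to each well's pre-drug value. The stock of one drug was tenfold lower, so its dose labels may be too high.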

CCc1c2c(nc3ccc(OC(=O)N4CCC(N5CCCCC5)CC4)cc13)-c1cc3c(c(=O)n1C2)COC(=O)[C@]3(O)CC [Irinotecan]
relative JC-1 red fluorescence
Conditions	8 h	16 h	24 h	32 h	40 h	48 h	56 h	64 h	72 h
0.1 µM, coculture fibroblast: C12385	0.779 ± 0.013	0.683 ± 0.046	0.694 ± 0.037	0.62 ± 0.042	0.589 ± 0.043	0.57 ± 0.051	0.559 ± 0.061	0.547 ± 0.06	0.552 ± 0.06
0.1 µM, coculture fibroblast: H6013	0.8092 ± 0.00092	0.801 ± 0.054	0.787 ± 0.086	0.776 ± 0.099	0.759 ± 0.12	0.775 ± 0.13	0.73 ± 0.12	0.709 ± 0.12	0.653 ± 0.11
0.1 µM, coculture fibroblast: H6019	0.7221 ± 0.0009	0.676 ± 0.036	0.638 ± 0.063	0.558 ± 0.063	0.527 ± 0.074	0.507 ± 0.077	0.472 ± 0.084	0.442 ± 0.082	0.416 ± 0.074
0.1 µM, coculture fibroblast: H6076	0.765 ± 0.015	0.695 ± 0.047	0.687 ± 0.071	0.636 ± 0.09	0.618 ± 0.088	0.589 ± 0.097	0.592 ± 0.093	0.581 ± 0.082	0.572 ± 0.089
0.1 µM, coculture fibroblast: H6231	0.78629 ± 0.0006	0.673 ± 0.0091	0.6621 ± 0.0032	0.573 ± 0.0096	0.537 ± 0.0095	0.499 ± 0.0086	0.488 ± 0.0049	0.4595 ± 0.0014	0.4412 ± 0.0017
0.1 µM, coculture fibroblast: HADF	0.796 ± 0.026	0.695 ± 0.014	0.657 ± 0.035	0.613 ± 0.042	0.581 ± 0.075	0.584 ± 0.098	0.525 ± 0.099	0.515 ± 0.12	0.478 ± 0.11
0.1 µM, coculture fibroblast: HCFa	0.743 ± 0.024	0.684 ± 0.012	0.643 ± 0.0097	0.599 ± 0.012	0.57 ± 0.011	0.576 ± 0.0059	0.514 ± 0.0081	0.502 ± 0.0042	0.4462 ± 0.0038
0.1 µM, coculture fibroblast: HCPF	0.727 ± 0.032	0.675 ± 0.021	0.6723 ± 0.006	0.612 ± 0.013	0.597 ± 0.0076	0.564 ± 0.0058	0.552 ± 0.0051	0.53 ± 0.012	0.514 ± 0.01
0.1 µM, coculture fibroblast: HHSteC	0.795 ± 0.014	0.772 ± 0.031	0.735 ± 0.031	0.699 ± 0.021	0.684 ± 0.018	0.685 ± 0.016	0.619 ± 0.014	0.593 ± 0.018	0.54 ± 0.018
0.1 µM, coculture fibroblast: HMF	0.727 ± 0.06	0.668 ± 0.067	0.634 ± 0.059	0.579 ± 0.062	0.574 ± 0.05	0.544 ± 0.04	0.543 ± 0.036	0.516 ± 0.037	0.508 ± 0.024
0.1 µM, coculture fibroblast: HPFa	0.843 ± 0.02	0.763 ± 0.02	0.718 ± 0.033	0.685 ± 0.045	0.652 ± 0.052	0.66 ± 0.06	0.577 ± 0.055	0.541 ± 0.052	0.47 ± 0.045
0.1 µM, coculture fibroblast: HUF	0.827 ± 0.016	0.725 ± 0.02	0.69 ± 0.033	0.613 ± 0.045	0.557 ± 0.038	0.535 ± 0.035	0.512 ± 0.03	0.491 ± 0.034	0.484 ± 0.043
0.1 µM, coculture fibroblast: Hs5	0.754 ± 0.017	0.708 ± 0.014	0.7 ± 0.015	0.6392 ± 0.003	0.6216 ± 0.0056	0.578 ± 0.014	0.584 ± 0.028	0.543 ± 0.029	0.533 ± 0.027
0.1 µM, coculture fibroblast: Hs27A	0.785 ± 0.022	0.694 ± 0.034	0.648 ± 0.056	0.615 ± 0.046	0.579 ± 0.062	0.628 ± 0.072	0.536 ± 0.059	0.513 ± 0.058	0.438 ± 0.051
0.1 µM, coculture fibroblast: Hs343T	0.735 ± 0.029	0.659 ± 0.018	0.6197 ± 0.0021	0.569 ± 0.027	0.538 ± 0.049	0.5 ± 0.065	0.486 ± 0.074	0.475 ± 0.08	0.469 ± 0.084
0.1 µM, coculture fibroblast: WS1	0.7547 ± 0.005	0.686 ± 0.024	0.661 ± 0.011	0.576 ± 0.013	0.538 ± 0.026	0.507 ± 0.025	0.483 ± 0.031	0.448 ± 0.035	0.438 ± 0.043
1 µM, coculture fibroblast: C12385	0.754 ± 0.029	0.711 ± 0.015	0.716 ± 0.017	0.644 ± 0.0092	0.61 ± 0.007	0.5974 ± 0.0022	0.5908 ± 0.0017	0.5871 ± 0.0012	0.5919 ± 0.0028
1 µM, coculture fibroblast: H6013	0.832 ± 0.076	0.816 ± 0.11	0.808 ± 0.14	0.806 ± 0.15	0.801 ± 0.17	0.836 ± 0.17	0.789 ± 0.17	0.778 ± 0.17	0.728 ± 0.15
1 µM, coculture fibroblast: H6019	0.725 ± 0.017	0.712 ± 0.07	0.714 ± 0.09	0.65 ± 0.098	0.621 ± 0.1	0.607 ± 0.11	0.576 ± 0.12	0.547 ± 0.11	0.523 ± 0.11
1 µM, coculture fibroblast: H6076	0.754 ± 0.011	0.689 ± 0.019	0.679 ± 0.028	0.628 ± 0.045	0.608 ± 0.056	0.586 ± 0.059	0.607 ± 0.056	0.599 ± 0.051	0.604 ± 0.056
1 µM, coculture fibroblast: H6231	0.73 ± 0.027	0.6464 ± 0.0029	0.691 ± 0.014	0.597 ± 0.025	0.577 ± 0.034	0.548 ± 0.033	0.544 ± 0.048	0.523 ± 0.053	0.507 ± 0.052
1 µM, coculture fibroblast: HADF	0.795 ± 0.017	0.8 ± 0.035	0.782 ± 0.037	0.753 ± 0.048	0.749 ± 0.048	0.796 ± 0.055	0.731 ± 0.048	0.737 ± 0.05	0.696 ± 0.043
1 µM, coculture fibroblast: HCFa	0.797 ± 0.025	0.772 ± 0.014	0.723 ± 0.022	0.676 ± 0.038	0.656 ± 0.048	0.673 ± 0.05	0.603 ± 0.059	0.585 ± 0.063	0.529 ± 0.066
1 µM, coculture fibroblast: HCPF	0.796 ± 0.072	0.772 ± 0.12	0.777 ± 0.14	0.701 ± 0.13	0.676 ± 0.12	0.634 ± 0.12	0.615 ± 0.095	0.596 ± 0.084	0.571 ± 0.061
1 µM, coculture fibroblast: HHSteC	0.817 ± 0.031	0.802 ± 0.03	0.78 ± 0.037	0.734 ± 0.047	0.733 ± 0.057	0.742 ± 0.062	0.688 ± 0.057	0.666 ± 0.061	0.619 ± 0.058
1 µM, coculture fibroblast: HMF	0.765 ± 0.036	0.706 ± 0.034	0.693 ± 0.03	0.634 ± 0.026	0.603 ± 0.012	0.563 ± 0.015	0.553 ± 0.0052	0.5311 ± 0.0033	0.518 ± 0.0067
1 µM, coculture fibroblast: HPFa	0.894 ± 0.037	0.825 ± 0.034	0.782 ± 0.053	0.72 ± 0.067	0.703 ± 0.08	0.705 ± 0.1	0.624 ± 0.089	0.589 ± 0.092	0.512 ± 0.085
1 µM, coculture fibroblast: HUF	0.82 ± 0.037	0.745 ± 0.011	0.726 ± 0.015	0.647 ± 0.013	0.595 ± 0.018	0.564 ± 0.02	0.538 ± 0.032	0.525 ± 0.031	0.527 ± 0.037
1 µM, coculture fibroblast: Hs5	0.766 ± 0.037	0.727 ± 0.024	0.734 ± 0.014	0.69 ± 0.017	0.678 ± 0.018	0.642 ± 0.018	0.655 ± 0.02	0.635 ± 0.019	0.623 ± 0.022
1 µM, coculture fibroblast: Hs27A	0.823 ± 0.032	0.762 ± 0.025	0.75586 ± 0.00029	0.724 ± 0.015	0.707 ± 0.019	0.784 ± 0.035	0.667 ± 0.025	0.653 ± 0.029	0.577 ± 0.023
1 µM, coculture fibroblast: Hs343T	0.7369 ± 0.004	0.6981 ± 0.0051	0.685 ± 0.012	0.639 ± 0.021	0.617 ± 0.032	0.586 ± 0.03	0.579 ± 0.045	0.563 ± 0.048	0.567 ± 0.062
1 µM, coculture fibroblast: WS1	0.745 ± 0.01	0.715 ± 0.013	0.717 ± 0.013	0.646 ± 0.016	0.608 ± 0.0095	0.5934 ± 0.0038	0.583 ± 0.0078	0.564 ± 0.01	0.56 ± 0.0081

± gives the standard deviation of the averaged measurements. The reference is the same well before dosing, and untreated signal decays as well.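 Labels refer to human fibroblasts, largely primary: uterine (C12385, HUF), lung (H6013), bone (Hs27A), adrenal (HADF), skin (WS1), plus mammary HMF and breast cancer-associated Hs343T. Cancer lines are basal-like or mesenchymal-like triple-negative breast cancer. The paper counts as hits responses shifting over 3x the replicate standard deviation. The tissue of the other fibroblasts is not given here.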
